According to article PMC8275807:
Results are given in words; binding and its absence hold for the method and conditions named. In cells and extracts the contact can be indirect. Binding can be weak; no strength is given. Tags and fused reporters may be left off the sequences shown.

Molecular target: eGFP-Mu2 (Drosophila MDC1 homolog) (Drosophila)
Test: proximity ligation; Duolink in situ PLA (fluorescence) on third instar larval eye discs expressing the tagged transgenes; rabbit anti-V5 + mouse anti-GFP for TER94 and Mu2; rabbit anti-Myc + mouse anti-GFP for p53 and Mu2

B1: 6XMyc-p53A (Drosophila p53 isoform A) (protein, UniProt Q9N6D8 1-385)
chain: MYISQPMSWHKESTDSEDDSTEVDIKEDIPKTVEVSGSELTTEPMAFLQGLNSGNLMQFSQQSVLREMMLQDIQIQANTLPKLENHNIGGYCFSMVLDEPPKSLWMYSIPLNKLYIRMNKAFNVDVQFKSKMPIQPLNLRVFLCFSNDVSAPVVRCQNHLSVEPLTANNAKMRESLLRSENPNSVYCGNAQGKGISERFSVVVPLNMSRSVTRSGLTRQTLAFKFVCQNSCIGRKETSLVFCLEKACGDIVGQHVIHVKICTCPKRDRIQDERQLNSKKRKSVPEAAEEDEPSKVRRCIAIKTEDTESNDSRDCDDSAAEWNVSRTPDGDYRLAITCPNKEWLLQSIEGMIKEAAAEVLRNPNQENLRRHANKLLSLKKRAYELP
For B1, the binding was “binds”.
